The values that follow come from article PMC8532385.

Chains of the proteins cited; added tags and fusions are not shown.
UniProt Q9NQG6: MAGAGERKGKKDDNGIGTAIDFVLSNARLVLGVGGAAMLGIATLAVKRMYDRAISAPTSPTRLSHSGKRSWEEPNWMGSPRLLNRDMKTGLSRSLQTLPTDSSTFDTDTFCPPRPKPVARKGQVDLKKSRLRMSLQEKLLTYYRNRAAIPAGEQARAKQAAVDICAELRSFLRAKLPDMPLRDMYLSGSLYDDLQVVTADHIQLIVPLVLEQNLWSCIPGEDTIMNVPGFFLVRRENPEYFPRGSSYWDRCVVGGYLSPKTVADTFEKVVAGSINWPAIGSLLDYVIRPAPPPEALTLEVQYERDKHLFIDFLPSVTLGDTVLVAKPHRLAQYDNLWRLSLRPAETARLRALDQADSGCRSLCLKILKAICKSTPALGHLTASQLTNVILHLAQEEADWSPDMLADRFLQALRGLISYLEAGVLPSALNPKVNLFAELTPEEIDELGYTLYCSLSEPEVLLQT
UniProt P21796: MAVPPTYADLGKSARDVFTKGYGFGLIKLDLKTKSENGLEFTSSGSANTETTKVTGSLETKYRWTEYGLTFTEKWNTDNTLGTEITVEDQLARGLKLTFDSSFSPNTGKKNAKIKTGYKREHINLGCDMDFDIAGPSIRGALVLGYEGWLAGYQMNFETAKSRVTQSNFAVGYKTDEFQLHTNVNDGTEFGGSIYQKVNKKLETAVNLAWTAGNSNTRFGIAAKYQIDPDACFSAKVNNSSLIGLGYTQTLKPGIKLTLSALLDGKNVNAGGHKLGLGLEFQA

No constants are given. Whether binding was seen depends on the method and setting. In cells and extracts the contact can be indirect.

Test [1] concerns the target MIEF1 (endogenous) (human (endogenous in 293T)) (UniProt Q9NQG6). Description: co-IP; endogenous proteins; 293T cells in vivo crosslinked with 1% formaldehyde; Protein G beads pre-bound to anti-Mfn1 or anti-Mfn2 antibody (normal IgG as control), overnight at 4°C; immunoblot.
The target of test [2] is T1, MIEF2 (endogenous) (human (endogenous in 293T)) (UniProt Q96C03).
T1 sequence: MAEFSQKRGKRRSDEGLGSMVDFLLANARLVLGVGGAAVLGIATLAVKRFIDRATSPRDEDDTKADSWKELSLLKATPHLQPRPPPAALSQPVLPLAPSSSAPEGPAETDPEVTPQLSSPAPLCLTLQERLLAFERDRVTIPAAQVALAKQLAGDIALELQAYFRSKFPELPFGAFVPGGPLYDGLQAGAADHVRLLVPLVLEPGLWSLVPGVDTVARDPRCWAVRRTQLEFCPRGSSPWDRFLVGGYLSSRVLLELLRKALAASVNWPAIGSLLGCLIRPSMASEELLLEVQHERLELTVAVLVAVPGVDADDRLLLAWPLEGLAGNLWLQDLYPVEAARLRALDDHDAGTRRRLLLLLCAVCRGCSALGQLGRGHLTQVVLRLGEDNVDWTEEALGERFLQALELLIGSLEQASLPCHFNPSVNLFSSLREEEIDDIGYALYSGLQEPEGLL
The test is described as above.

Turning to “voltage-dependent anion channel 1 (VDAC1), endogenous (from UniProt P21796 1-283)”, the binding entry in test [1] and in test [2] was “no binding” each time.
